Laboratory results from publication PMC6454016.
These are yes or no findings as the source states them, for the method shown. Binding seen in cells or lysates may run through a third protein. Binding calls can cover weak binding; strength is not graded here.

Molecular target: T1, Tripartite Motif Protein 4 (TRIM4), endogenous (human (endogenous in RD)) (UniProt Q9C037)
T1 sequence: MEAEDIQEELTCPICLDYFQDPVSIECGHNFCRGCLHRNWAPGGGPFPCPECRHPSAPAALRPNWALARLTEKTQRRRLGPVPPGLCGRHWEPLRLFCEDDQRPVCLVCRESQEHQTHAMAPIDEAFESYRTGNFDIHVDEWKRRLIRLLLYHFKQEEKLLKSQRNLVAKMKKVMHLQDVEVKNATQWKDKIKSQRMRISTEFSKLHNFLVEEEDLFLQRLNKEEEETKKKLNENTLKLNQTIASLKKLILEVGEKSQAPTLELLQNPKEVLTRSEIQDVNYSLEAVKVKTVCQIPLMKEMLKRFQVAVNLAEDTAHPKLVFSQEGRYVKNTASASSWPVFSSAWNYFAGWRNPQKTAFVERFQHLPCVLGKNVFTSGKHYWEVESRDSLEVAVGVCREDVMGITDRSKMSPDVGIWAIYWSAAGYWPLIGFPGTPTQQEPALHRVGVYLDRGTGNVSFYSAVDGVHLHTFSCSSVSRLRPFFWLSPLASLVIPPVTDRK
Assay: co-IP

EV-A71 2C protein made during infection (enterovirus A71 (Fuyang strain))
binding: binds
